In PubChem BioAssay AID588590 (National Center for Advancing Translational Sciences (NCATS), 2011):
Where “and” joins values, the source holds several entries; their conditions need not be identical. Identical values can stand only once. About 4,000 (1%) of roughly 390,000 compounds were called active. Inconclusive results, whose numbers are uncertain, are shown with a selection of clear calls. The call rests on the fitted dose curve; in most records, active means well fitted inhibition curve with a large enough effect; inconclusive means small, poorly fitted or top-dose-only effect, or another doubt; inactive means no such curve, though single readings can be large or run the other way. Where the call is inconclusive, the potency comes from a doubtful curve fit.

Amino acid sequences for entries named in this document (tags omitted). A change or cut given only in a name is not applied to a line headed by its entry.
UniProt Q9UNA4: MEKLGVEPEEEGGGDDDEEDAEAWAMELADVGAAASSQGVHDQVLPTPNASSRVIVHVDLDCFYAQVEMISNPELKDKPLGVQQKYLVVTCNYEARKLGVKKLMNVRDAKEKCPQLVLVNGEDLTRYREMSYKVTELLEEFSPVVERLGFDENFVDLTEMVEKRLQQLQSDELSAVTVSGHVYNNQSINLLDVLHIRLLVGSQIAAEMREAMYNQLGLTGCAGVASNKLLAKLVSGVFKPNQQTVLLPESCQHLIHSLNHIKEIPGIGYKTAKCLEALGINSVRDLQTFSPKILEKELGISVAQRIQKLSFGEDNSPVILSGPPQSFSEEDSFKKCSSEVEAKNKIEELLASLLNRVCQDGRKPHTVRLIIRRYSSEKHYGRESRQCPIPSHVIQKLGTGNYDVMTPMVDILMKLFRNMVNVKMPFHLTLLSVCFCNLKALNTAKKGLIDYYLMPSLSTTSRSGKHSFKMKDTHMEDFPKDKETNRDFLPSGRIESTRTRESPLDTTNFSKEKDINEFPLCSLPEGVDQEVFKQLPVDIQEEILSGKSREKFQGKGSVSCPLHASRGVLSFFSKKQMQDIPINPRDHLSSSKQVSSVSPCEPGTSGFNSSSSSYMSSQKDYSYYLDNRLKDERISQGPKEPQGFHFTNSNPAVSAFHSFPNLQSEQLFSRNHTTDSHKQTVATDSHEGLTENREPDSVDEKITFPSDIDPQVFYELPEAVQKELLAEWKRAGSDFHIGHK

Biological target: DNA polymerase iota (Homo sapiens) (UniProt Q9UNA4)
Test: qHTS for Inhibitors of Polymerase Iota
Conditions: Pol iota fluorescent replication assay, 10 min; series mostly up to 115 µM
Method in brief: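 Fluorescent replication assay read twice, at 0 min and 10 min after adding 50 nM (final) substrate. Enzyme (10 nM) and compounds were first incubated 15 min at room temperature; enzyme-free buffer wells were negative controls.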
Potency means the concentration at half of the fitted maximal effect.

Row | SMILES | Potency
1 | COc1ccc2c(c1)c1c(c(=O)n(Cc3ccccc3)c(=O)n1CC(=O)Nc1ccccc1OC)n2C | inactive
2 | CCc1nnc(NC(=O)CSc2sc3c(O)cc(=O)[nH]c3c2C#N)s1 | active: 1.78 µM
3 | CCC(=O)c1ccc(OCC(=O)N2CCN(S(=O)(=O)c3ccc(Cl)s3)CC2)cc1 | inconclusive: 56.2 µM [inhibitor, partial curve, poor fit]
4 | CCCSc1nc2c(cnn2-c2ccc(F)cc2)c(=O)[nH]1 | inconclusive: 17.8 µM [inhibitor, partial curve, poor fit]
5 | Cc1nc(SCc2nc3c(F)cccc3[nH]2)c2oc3ccccc3c2n1 | inconclusive: 25.1 µM [inhibitor, partial curve, poor fit]
6 | CN(C(=O)c1ccc(NC(=O)C2CCCN(C(=O)OC(C)(C)C)C2)cc1)C1CCC1 (stereo unspecified) | inconclusive: 11.2 µM [inhibitor, partial curve]
7 | CSc1ncnc2ncn(C)c12 | inconclusive: 89.1 µM [inhibitor, single point]
8 | C[C@H]1CN([C@@H](C)CO)C(=O)c2cccc(NC(=O)Nc3ccc(F)cc3)c2O[C@@H]1CN(C)Cc1ccc(C(=O)O)cc1 | inconclusive: 39.8 µM [inhibitor, single point]
9 | Cc1n(CC(O)COCc2ccccc2)c2ccccc2[n+]1C (stereo unspecified) | inconclusive: 2 µM [inhibitor, partial curve, poor fit]
10 | CCOc1ccccc1CNC(=O)c1cc2c(=O)n(Cc3cccnc3)ccc2nc1C | inactive
11 | Cc1ccc(C2=NS(=O)(=O)N(C)C(C(=O)NCc3ccc4c(c3)OCO4)=C2)cc1 | inconclusive: 70.8 µM [inhibitor, single point]
12 | CC(=O)Nc1ccc(C=NNc2ccc(S(=O)(=O)Nc3ccccc3C(=O)O)cc2[N+](=O)[O-])cc1 | inconclusive: 25.1 µM [inhibitor, partial curve, poor fit]
13 | Cc1nn(-c2ccccc2)c2[nH]c(=O)c(CNc3ccc(N4CCOCC4)cc3)cc12 | inconclusive: 4.47 µM [inhibitor, partial curve, poor fit]
14 | O=C1CSC(c2ccccc2[N+](=O)[O-])N1CCc1ccccc1 (stereo unspecified) | inactive
15 | CC1=CC(C)(C)NC(=S)N1c1cccc2cc(S(=O)(=O)O)ccc12 | inconclusive: 14.1 µM [inhibitor, partial curve, poor fit]
16 | COC1=CC(=O)c2ccccc2C1=O | active: 14.1 µM
17 | COc1ccc(C2Nc3ccccc3NC3=C2C(=O)CC(C)(C)C3)cc1 (stereo unspecified) | inconclusive: 17.8 µM [inhibitor, full curve, poor fit]
18 | COc1ccc(/C=C2/SC(=O)NC2=O)cc1 | inactive
19 | C=CCOC(=O)C1=C[C@@H](c2ccc3c(c2)OCO3)C[C@@H](OCCCCO)O1 | inconclusive: 79.4 µM [inhibitor, partial curve, poor fit]
20 | CCOc1cc(C)ccc1OCc1nnc(SCC(=O)c2cccc([N+](=O)[O-])c2)n1CC | inconclusive: 89.1 µM [inhibitor, partial curve, poor fit]
21 | CCOc1cc(/C=N\Nc2nc(Nc3ccccc3)nc(N3CCOCC3)n2)ccc1OC(=O)c1ccco1 | inconclusive: 79.4 µM [inhibitor, single point]

Row | SMILES | Potency
22 | COc1cc(/C=N\NC(=O)c2ccc(=O)[nH]n2)cc(OC)c1OC | active: 15.8 µM
23 | CCCN1C(=O)c2cc(C(=O)Nc3cccc(C(C)=O)c3)ccc2C1Nc1cccc(C(C)=O)c1 (stereo unspecified) | inconclusive: 1.78 µM [inhibitor, full curve, poor fit]
24 | Oc1ccc(/C=N/N=C(c2ccccc2)c2ccccc2)c(O)c1O | inconclusive: 5.62 µM [inhibitor, full curve, poor fit]
25 | Cc1occc1C(=O)O/N=C(\N)c1ccccc1 | inactive
26 | Cc1ccc(-c2cc(C(=O)Nc3nccs3)c3ccccc3n2)c(C)c1 | inactive
27 | CCN(C(=O)CSc1nc(C)nc2sc3c(c12)CCC3)C1CCS(=O)(=O)C1 (stereo unspecified) | inconclusive: 17.8 µM [inhibitor, partial curve, poor fit]
28 | O=C(/C=C/c1ccccc1)c1cc(Br)ccc(=O)c1O | active: 3.16 µM
29 | Cc1ccc(-c2cnc(C3CC3)o2)cc1S(=O)(=O)Nc1cccc(C)c1C | inconclusive: 70.8 µM [inhibitor, partial curve, poor fit]
30 | COc1ccc(O)c(C(=O)c2cc(SCC(=O)O)c3nc4sc5c(c4c(=O)n3c2)CCCC5)c1 | inconclusive: 14.1 µM [inhibitor, partial curve, poor fit]
31 | O=C(CSc1nccn1-c1ccc(F)cc1)Nc1nc2ccccc2s1 | inconclusive: 89.1 µM [inhibitor, single point]
32 | COC(=O)c1c(NC(=O)c2ccc(OC)cc2OC)sc2c1CCCCC2 | inconclusive: 79.4 µM [inhibitor, single point]
33 | NC(=O)Cn1c(=O)n(Cc2ccccc2)c(=O)c2cccnc21 | inconclusive: 39.8 µM [inhibitor, single point]
34 | COC(=O)c1ccc(/C=N/NC(=O)c2cccc(F)c2)cc1 | inconclusive: 79.4 µM [inhibitor, partial curve]
35 | CN(CC(=O)Nc1cccc(F)c1)C(=O)c1cccc(-n2cccc2)c1 | active: 20 µM
36 | O=C(CN(C(=O)c1csnn1)c1cccc(C(F)(F)F)c1)NC1CCCC1 | inconclusive: 89.1 µM [inhibitor, single point]
37 | COc1cc(/C=C/C(=O)OCC(=O)Nc2ccc(C)cc2[N+](=O)[O-])ccc1O | inconclusive: 11.2 µM [inhibitor, full curve]
38 | CN1/C(=C/C=C(C#N)C#N)C=Cc2ccccc21 | active: 79.4 µM
39 | O=c1c2ccccc2nc(N/N=C/c2c(O)ccc3ccccc23)n1O | inconclusive: 39.8 µM [inhibitor, single point]
40 | CN(C)S(=O)(=O)N1CCN(C(=O)N(c2ccccc2)c2ccccc2)CC1 | inconclusive: 89.1 µM [inhibitor, partial curve, poor fit]
41 | CCc1ccc(/C=C2\SC(=S)N(CCCC(=O)Nc3ccc(C(=O)O)cc3)C2=O)cc1 | inconclusive: 39.8 µM [inhibitor, single point]
42 | N#CC1=C(N)C(C#N)(C#N)[C@H](c2ccncc2)[C@H]2CN(C(=O)OCc3ccccc3)CC=C12 | inconclusive: 28.2 µM [inhibitor, single point]

Row | SMILES | Potency
43 | COCC(=O)NC1CCN(CC(=O)Nc2ccc(OC)cc2[N+](=O)[O-])CC1 | inconclusive: 79.4 µM [inhibitor, single point]
44 | COc1ccc2c(/C=N/NS(=O)(=O)c3ccc(C)cc3)c[nH]c2c1 | inconclusive: 28.2 µM [inhibitor, partial curve, poor fit]
45 | CC(C)(C)c1nnc(N/N=C/c2ccccc2)n(N)c1=O | inactive
46 | O=C(NNS(=O)(=O)c1ccccc1[N+](=O)[O-])c1cc2ccccc2cc1O | inconclusive: 31.6 µM [inhibitor, single point]
47 | Cc1ccc(Sc2ccc(NC(=O)CCl)cc2)c(C)c1 | inconclusive: 20 µM [inhibitor, full curve]
48 | CCOC(=O)c1c(-c2ccc(C)cc2)csc1/N=C(\C)C1=C(O)c2ccccc2C1=O | inconclusive: 22.4 µM [inhibitor, partial curve, poor fit]
49 | O=c1cc(-c2ccccc2)[nH]c2cc(F)ccc12 | inconclusive: 89.1 µM [inhibitor, partial curve, poor fit]
50 | COCCn1c(SCC#N)nnc1-c1ccccc1O | inconclusive: 112 µM [inhibitor, single point]
51 | CC(C)(C)c1ccc(S(=O)(=O)/N=C2\C=C(NS(=O)(=O)c3ccccc3)C(=O)c3ccccc32)cc1 | inconclusive: 12.6 µM [inhibitor, full curve, poor fit]
52 | CC(=O)c1ccc(N2CCN(S(=O)(=O)c3cc4[nH]c(=O)c(=O)[nH]c4cc3C)CC2)cc1 | inconclusive: 89.1 µM [inhibitor, single point] and inconclusive: 79.4 µM [inhibitor, partial curve, poor fit]
53 | COc1cccc(/C=C/C(=O)c2c(O)cc(C)oc2=O)c1O | inconclusive: 39.8 µM [inhibitor, partial curve, poor fit]
54 | O=C(Cc1ccc(-n2cccc2)cc1)NCc1ccccc1Cl | inconclusive: 100 µM [inhibitor, single point]
55 | Cc1ccc(S(=O)(=O)n2nc(OC(=O)c3c(F)cccc3Cl)cc2N)cc1 | inconclusive: 22.4 µM [inhibitor, single point]
56 | Cc1csc(NC(=O)CSc2nnc(-c3ccc(Cl)cc3)n2N)n1 | inconclusive: 112 µM [inhibitor, partial curve, poor fit]
57 | C=CCN=c1scc(C)n1/N=C/c1ccc(O)c(O)c1 | inconclusive: 70.8 µM [inhibitor, single point]
58 | CCN(CC(=O)Nc1c(F)cccc1F)C(=O)c1ccc(Cl)c(S(=O)(=O)N2CCCCC2)c1 | inactive
59 | Cc1cc(C(=O)COC(=O)CNC(=O)c2ccc(Cl)c(Cl)c2)c(C)n1Cc1ccco1 | inconclusive: 89.1 µM [inhibitor, partial curve, poor fit]
60 | Cc1ccc(S(=O)(=O)CC(=O)Nc2nc3c(C)cc(C)cc3s2)cc1 | inactive
61 | O=[N+]([O-])c1ccccc1-c1ccc(C(=S)N2CCCC2)o1 | inconclusive: 0.708 µM [inhibitor, full curve, poor fit]
